Source: patent publication US20220169643A1, “ESTROGEN RECEPTOR DEGRADING PROTACS” (AstraZeneca AB, priority 2019, published 2022)

Chains of the proteins cited; added tags and fusions are not shown. Residues count along the entry.
UniProt P03372, 307-554 limits assumed: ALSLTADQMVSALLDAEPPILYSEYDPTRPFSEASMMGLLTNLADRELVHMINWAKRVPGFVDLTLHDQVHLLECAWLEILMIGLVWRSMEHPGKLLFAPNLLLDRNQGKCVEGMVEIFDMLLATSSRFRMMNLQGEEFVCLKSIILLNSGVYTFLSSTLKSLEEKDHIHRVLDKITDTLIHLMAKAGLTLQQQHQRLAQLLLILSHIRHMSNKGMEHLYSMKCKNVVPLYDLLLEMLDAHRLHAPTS

These compounds were tested against Estrogen Receptor Alpha Ligand binding domain (ER alpha-LBD (GST)) (Homo sapiens, UniProt P03372) (assay: ERα Binding Assay (LanthaScreen TR-FRET competition)). Conditions: read-out: ER binding IC50, competitive displacement of Fluormone ES2 tracer from recombinant human ER alpha-LBD (residues 307-554), 4 hours at room temperature.
Protocol: The ability of compounds to bind to isolated Estrogen Receptor Alpha Ligand binding domain (ER alpha-LBD (GST)) was assessed in competition assays using a LanthaScreen™ Time-Resolved Fluorescence Resonance Energy Transfer (TR-FRET) detection end-point. For the LanthaScreen TR-FRET endpoint, a suitable fluorophore (Fluormone ES2, ThermoFisher, Product code P2645) and recombinant human Estrogen Receptor alpha ligand binding domain, residues 307-554 (expressed and purified in-house) were used to measure compound binding. The assay principle is that ER alpha-LBD (GST) is added to a fluorescent ligand to form a receptor/fluorophore complex. A terbium-labelled anti-GST antibody (Product code PV3551) is used to indirectly label the receptor by binding to its GST tag, and competitive binding is detected by a test compound's ability to displace the fluorescent ligand, resulting in a loss of TR-FRET signal between the Th-anti-GST antibody and the tracer. The assay was performed as follows with all reagent additions carried out using the Beckman Coulter BioRAPTR FRD microfluidic workstation: • 1. Acoustic dispense 120 nL of the test compound into a black low volume 384 well assay plates. • 2. Prepare 1×ER alpha-LBD/Tb-anti-GST Ab in ES2 screening buffer and incubate for 15 minutes. • 3. Dispense 6 μL of the 1×[…]/Th-anti-GST Ab reagent into each well of the assay plate followed by 6 μL of Fluorophore reagent into each well of the assay plate • 4. Cover the assay plate to protect the reagents from light and evaporation, and incubate at room temperature for 4 hours. • 5. […]
In total 120 nL of compound plus DMSO were added to each well and compounds were tested in a 12-point concentration response format over a final compound concentration range of 10, 2.917, 1.042, 0.2083, 0.1, 0.0292, 0.0104, 0.002083, 0.001, 0.0002917, 0.0001042, and 0.00001 μM respectively. […] Competitive ER alpha binding was expressed as an IC50 value. This was determined by calculation of the concentration of compound that was required to give a 50% reduction in tracer compound binding to ER alpha-LBD.

Row | SMILES | IC50 [nM]
1 | C[C@@H]1Cc2c([nH]c3ccccc23)[C@@H](c2cnc(OCCCCCN3CCC4(CC3)CCN(c3ccc5c(c3)CN(C3CCC(=O)NC3=O)C5=O)CC4)nc2)N1CC(C)(C)F (stereo partly drawn) | 6.8
2 | C[C@@H]1Cc2c([nH]c3ccccc23)[C@@H](c2cnc(N3CCC4(CC3)CC(CN3CCC5(CC3)CCN(c3ccc6c(c3)CN(C3CCC(=O)NC3=O)C6=O)CC5)C4)nc2)N1CC(C)(C)F (stereo partly drawn) | 2.1
3 | C[C@@H]1Cc2c([nH]c3ccccc23)[C@@H](c2cnc(N3CCC4(CCN(CCN5CCN(c6ccc7c(c6)CN(C6CCC(=O)NC6=O)C7=O)CC5)C(=O)C4)CC3)nc2)N1CC(C)(C)F (stereo partly drawn) | 2.6

The match of structure and compound is tentative.
